Results on 29 targets are retold here after the supplement of paper PMC10849652.

Sequences of proteins named here, by UniProt entry; tags and fusion partners are left off. A change or cut given only in a name is not applied to a line headed by its entry.
UniProt Q9UHX3: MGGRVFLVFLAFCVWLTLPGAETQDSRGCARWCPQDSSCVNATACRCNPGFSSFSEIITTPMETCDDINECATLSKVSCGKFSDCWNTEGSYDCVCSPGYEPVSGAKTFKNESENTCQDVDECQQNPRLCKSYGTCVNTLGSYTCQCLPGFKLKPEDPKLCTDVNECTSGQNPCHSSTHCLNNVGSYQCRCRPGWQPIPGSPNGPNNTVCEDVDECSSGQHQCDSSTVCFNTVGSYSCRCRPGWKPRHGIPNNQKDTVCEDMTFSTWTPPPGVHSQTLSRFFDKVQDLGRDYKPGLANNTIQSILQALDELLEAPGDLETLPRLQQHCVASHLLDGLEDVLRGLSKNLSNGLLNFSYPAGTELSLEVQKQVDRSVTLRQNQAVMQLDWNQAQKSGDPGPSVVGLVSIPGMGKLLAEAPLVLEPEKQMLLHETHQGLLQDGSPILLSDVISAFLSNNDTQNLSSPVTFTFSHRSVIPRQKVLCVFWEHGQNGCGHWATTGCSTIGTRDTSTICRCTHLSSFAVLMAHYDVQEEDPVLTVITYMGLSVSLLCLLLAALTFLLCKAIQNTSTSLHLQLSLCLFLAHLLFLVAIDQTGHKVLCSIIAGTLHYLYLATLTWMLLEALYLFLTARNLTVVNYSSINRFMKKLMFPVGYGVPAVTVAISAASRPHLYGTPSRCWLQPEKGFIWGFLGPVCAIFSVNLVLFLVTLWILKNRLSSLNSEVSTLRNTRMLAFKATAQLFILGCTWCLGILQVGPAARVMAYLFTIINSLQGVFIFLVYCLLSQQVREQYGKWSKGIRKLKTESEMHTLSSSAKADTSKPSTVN
UniProt Q01432: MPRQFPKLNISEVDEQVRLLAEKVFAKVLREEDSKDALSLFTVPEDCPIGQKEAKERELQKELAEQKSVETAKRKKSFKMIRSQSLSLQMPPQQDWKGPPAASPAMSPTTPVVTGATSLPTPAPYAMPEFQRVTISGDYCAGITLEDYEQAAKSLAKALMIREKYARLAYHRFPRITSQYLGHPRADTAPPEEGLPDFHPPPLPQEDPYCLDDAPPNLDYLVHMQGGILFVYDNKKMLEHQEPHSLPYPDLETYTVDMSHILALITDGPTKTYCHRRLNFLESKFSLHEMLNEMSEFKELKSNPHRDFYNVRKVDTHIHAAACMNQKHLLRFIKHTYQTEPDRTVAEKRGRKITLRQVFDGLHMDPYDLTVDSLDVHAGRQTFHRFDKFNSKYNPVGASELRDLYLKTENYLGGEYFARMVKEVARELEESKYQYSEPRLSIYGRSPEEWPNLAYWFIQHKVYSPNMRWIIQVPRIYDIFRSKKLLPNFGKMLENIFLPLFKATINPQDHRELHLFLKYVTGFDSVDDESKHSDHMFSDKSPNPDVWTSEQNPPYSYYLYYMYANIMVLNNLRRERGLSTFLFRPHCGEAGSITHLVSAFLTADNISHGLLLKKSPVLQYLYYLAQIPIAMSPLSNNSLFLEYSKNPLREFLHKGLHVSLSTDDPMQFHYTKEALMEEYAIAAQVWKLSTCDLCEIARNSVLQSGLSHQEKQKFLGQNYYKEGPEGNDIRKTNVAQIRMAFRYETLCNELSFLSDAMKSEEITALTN
UniProt Q9BT22: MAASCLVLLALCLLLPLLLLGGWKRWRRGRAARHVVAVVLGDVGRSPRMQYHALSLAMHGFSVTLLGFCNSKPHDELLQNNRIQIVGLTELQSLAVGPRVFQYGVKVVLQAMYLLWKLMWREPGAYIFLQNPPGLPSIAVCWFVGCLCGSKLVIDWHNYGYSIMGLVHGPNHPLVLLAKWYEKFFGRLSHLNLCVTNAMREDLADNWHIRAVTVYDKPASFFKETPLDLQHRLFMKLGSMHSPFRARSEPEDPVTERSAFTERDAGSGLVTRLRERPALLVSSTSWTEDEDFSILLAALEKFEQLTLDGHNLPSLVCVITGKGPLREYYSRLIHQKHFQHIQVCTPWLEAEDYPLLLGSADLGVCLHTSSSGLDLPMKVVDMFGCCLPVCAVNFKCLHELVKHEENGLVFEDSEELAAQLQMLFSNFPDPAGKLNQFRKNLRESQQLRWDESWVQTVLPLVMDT
UniProt Q12904: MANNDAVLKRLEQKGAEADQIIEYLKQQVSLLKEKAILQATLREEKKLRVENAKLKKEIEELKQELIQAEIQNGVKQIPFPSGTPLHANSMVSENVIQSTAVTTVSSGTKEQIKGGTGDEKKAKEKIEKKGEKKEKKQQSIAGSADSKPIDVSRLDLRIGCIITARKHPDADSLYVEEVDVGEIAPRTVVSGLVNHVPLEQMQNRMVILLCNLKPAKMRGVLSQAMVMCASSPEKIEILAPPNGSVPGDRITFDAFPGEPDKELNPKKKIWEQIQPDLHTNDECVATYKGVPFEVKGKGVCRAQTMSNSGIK
UniProt Q92667: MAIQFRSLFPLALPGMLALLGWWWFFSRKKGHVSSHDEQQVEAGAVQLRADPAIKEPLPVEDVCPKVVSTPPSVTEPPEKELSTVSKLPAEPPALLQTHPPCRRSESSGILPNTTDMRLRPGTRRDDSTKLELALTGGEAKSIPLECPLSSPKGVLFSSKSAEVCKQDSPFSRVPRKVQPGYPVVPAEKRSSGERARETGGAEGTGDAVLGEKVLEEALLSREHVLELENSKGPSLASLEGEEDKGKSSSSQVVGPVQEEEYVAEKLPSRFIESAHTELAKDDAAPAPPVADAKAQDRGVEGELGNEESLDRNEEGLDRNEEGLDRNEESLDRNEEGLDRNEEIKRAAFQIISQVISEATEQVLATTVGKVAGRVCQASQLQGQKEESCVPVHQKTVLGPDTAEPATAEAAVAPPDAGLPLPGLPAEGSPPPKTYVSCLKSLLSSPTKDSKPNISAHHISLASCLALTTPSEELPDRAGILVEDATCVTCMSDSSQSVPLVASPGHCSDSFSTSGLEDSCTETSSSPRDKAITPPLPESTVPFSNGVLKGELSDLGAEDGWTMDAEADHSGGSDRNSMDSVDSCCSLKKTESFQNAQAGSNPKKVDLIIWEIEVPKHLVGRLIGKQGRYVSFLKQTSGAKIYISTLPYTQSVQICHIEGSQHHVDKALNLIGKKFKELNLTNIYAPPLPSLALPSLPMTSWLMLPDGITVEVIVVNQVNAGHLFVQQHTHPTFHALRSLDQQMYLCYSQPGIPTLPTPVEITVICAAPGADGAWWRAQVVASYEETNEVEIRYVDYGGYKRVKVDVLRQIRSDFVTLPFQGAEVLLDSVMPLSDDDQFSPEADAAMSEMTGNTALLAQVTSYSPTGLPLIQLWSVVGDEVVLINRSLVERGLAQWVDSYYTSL
UniProt P09972: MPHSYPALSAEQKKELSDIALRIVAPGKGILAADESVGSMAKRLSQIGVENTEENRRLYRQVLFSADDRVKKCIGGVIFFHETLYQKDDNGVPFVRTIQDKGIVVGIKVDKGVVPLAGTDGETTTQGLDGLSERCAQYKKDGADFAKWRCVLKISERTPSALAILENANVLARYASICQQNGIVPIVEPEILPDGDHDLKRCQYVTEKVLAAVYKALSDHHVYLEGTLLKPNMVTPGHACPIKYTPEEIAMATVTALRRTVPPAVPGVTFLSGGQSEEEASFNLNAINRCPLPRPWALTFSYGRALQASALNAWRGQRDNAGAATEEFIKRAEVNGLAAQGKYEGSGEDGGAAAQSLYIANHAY
UniProt Q53H80, whole entry, looked up: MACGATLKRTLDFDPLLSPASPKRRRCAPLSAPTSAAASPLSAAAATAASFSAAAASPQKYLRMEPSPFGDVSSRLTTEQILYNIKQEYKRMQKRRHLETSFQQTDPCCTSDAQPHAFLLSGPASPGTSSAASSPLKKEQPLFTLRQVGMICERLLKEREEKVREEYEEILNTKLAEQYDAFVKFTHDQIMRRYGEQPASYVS
UniProt Q9UM13, whole entry, looked up: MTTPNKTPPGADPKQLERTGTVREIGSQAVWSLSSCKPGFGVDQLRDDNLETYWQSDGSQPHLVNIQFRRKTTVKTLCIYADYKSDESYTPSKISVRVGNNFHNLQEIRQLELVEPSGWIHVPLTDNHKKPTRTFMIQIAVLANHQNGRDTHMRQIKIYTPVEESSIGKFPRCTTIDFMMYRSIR
UniProt P30038: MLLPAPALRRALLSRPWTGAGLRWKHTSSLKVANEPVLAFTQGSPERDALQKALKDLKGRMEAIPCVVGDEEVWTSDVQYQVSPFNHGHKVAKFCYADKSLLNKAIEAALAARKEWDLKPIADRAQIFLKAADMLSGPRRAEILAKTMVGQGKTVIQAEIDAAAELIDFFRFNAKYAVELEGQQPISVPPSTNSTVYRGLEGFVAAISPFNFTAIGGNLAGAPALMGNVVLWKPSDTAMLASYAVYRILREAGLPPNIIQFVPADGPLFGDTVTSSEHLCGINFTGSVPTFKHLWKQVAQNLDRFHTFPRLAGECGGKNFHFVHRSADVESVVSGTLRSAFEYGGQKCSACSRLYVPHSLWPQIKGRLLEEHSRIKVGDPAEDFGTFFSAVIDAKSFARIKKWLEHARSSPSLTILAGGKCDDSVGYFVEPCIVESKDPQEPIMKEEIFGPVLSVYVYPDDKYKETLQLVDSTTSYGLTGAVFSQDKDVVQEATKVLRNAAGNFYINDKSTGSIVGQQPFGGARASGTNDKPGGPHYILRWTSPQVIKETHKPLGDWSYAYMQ
UniProt P20933: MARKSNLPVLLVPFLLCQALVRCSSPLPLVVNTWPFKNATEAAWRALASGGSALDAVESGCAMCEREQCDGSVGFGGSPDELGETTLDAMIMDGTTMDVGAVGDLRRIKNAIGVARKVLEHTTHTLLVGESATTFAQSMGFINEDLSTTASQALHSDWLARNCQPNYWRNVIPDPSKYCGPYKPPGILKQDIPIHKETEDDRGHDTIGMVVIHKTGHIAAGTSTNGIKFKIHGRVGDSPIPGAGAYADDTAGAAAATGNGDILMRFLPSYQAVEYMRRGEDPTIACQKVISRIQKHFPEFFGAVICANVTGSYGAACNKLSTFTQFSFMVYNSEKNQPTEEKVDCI
UniProt Q6ZN18: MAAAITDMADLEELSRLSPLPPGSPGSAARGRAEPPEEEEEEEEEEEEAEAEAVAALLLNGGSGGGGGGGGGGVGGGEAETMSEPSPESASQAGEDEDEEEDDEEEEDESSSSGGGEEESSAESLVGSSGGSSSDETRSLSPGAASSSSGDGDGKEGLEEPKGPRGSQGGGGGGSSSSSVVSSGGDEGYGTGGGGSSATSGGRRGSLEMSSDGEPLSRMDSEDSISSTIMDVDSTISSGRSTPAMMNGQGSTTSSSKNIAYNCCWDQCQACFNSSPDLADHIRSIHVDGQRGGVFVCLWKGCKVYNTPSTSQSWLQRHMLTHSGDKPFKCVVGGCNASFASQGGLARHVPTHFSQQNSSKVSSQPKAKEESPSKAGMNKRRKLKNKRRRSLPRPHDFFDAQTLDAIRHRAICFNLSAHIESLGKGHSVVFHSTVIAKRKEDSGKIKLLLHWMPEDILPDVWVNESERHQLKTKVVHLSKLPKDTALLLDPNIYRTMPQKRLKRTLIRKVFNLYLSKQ
UniProt P02760: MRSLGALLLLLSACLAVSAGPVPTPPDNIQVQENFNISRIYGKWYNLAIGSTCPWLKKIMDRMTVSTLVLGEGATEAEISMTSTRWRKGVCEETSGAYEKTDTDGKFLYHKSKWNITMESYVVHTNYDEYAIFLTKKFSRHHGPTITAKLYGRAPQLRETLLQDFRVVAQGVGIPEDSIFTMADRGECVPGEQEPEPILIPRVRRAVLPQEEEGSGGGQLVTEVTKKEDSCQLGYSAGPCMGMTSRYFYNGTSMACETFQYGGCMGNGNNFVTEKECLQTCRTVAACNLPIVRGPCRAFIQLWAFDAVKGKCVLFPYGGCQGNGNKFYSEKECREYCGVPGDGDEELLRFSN
UniProt P30520: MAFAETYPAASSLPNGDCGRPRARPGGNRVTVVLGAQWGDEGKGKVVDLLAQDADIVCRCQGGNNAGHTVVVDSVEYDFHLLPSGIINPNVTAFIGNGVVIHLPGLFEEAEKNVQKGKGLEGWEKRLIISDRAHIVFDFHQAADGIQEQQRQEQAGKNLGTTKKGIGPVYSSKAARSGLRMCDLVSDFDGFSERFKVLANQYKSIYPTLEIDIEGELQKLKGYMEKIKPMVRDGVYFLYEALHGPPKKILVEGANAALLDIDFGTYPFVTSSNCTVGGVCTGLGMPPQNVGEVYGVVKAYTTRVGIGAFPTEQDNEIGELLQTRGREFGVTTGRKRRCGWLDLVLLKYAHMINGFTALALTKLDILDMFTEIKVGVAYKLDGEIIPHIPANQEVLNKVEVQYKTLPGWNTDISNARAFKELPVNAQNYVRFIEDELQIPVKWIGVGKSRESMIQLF

Some of the results follow.

Compound in the test: c1cn2cc(-c3ccc4cn[nH]c4c3)nc(Nc3ccc(N4CCOCC4)cc3)c2n1 [entospletinib]
The test is described as follows: log2 fold change, soluble protein after heating vs DMSO (PISA); higher = thermal stabilisation; K562 cells, 10 uM, 30 min; active = over 0.2 and 3.5 SD of the protein, either way, in both replicates (recomputed). In outline:
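K562 cells at 2×10^6 cells/mL were given 10 μM compound for 30 min. Aliquots then went through 3 min of heating across 48°C-58°C, were pooled, and were extracted in PBS with 0.5% NP-40 at 4°C, and the supernatant after 21,000xg for 90 min was quantified by TMTpro 16plex LC-MS/MS with channel sums equalised. Thermal stability relative to control samples, from duplicates, is given as log2 fold change.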
For AFF1 isoform 2 (UniProt P51825), the log2 fold change was inactive: 0.246.
With ADGRE2 (UniProt Q9UHX3), the log2 fold change is inactive: 0.023.
Take AMPD3 isoform 4 (UniProt Q01432): the log2 fold change was inactive: 0.032.
On to AGO4 (UniProt Q9HCK5), for which the log2 fold change is inactive: 0.027.
For the target ALG2 (UniProt Q9H553), the log2 fold change is inactive: 0.037.
Consider ALG12 (UniProt Q9BV10), for which the log2 fold change was inactive: -0.008.
ALG1 (UniProt Q9BT22): the log2 fold change was inactive: 0.074.
With AIMP1 isoform 2 (UniProt Q12904), the log2 fold change is inactive: 0.119.
Next, AKAP1 (UniProt Q92667): inactive: -0.01; ALDOC (UniProt P09972): inactive: -0.013.
Next, AHCYL2 (UniProt Q96HN2): inactive: 0.037; AKIRIN2 (UniProt Q53H80): inactive: -0.092.
For AGO3 (UniProt Q9H9G7), the log2 fold change is inactive: 0.093.
For the target ANAPC10 (UniProt Q9UM13), the log2 fold change was inactive: -0.158.
For ALDH5A1 isoform 2 (UniProt P51649), the log2 fold change was inactive: 0.023.
For the target ADSS1 (UniProt Q8N142), the log2 fold change was inactive: 0.027.
As to ALDH4A1 (UniProt P30038), the log2 fold change was inactive: 0.017.
For the target ALDOA (UniProt P04075), the log2 fold change was inactive: 0.001.
Next, AGA (UniProt P20933): inactive: -0.116; ALKBH8 isoform 4 (UniProt Q96BT7): inactive: 0.045.
For the target AEBP2 (UniProt Q6ZN18), the log2 fold change was inactive: -0.031.
For AK2 isoform 2 (UniProt P54819), the log2 fold change was inactive: 0.04.
In the case of AGPAT2 (UniProt O15120), the log2 fold change is inactive: 0.136.
Next, AMBP (UniProt P02760): inactive: 0.322; AKR1A1 (UniProt P14550): inactive: -0.078; ADSS2 (UniProt P30520): inactive: 0.033.
In the case of AKT1S1 isoform 3 (UniProt Q96B36) it was inactive: 0.026; in that of AK1 (UniProt P00568), inactive: 0.063.
As to AGFG1 isoform 4 (UniProt P52594), the log2 fold change is inactive: -0.057.
